Results taken from the supplement of paper PMC12889115.
Some of the results follow. These are raw signals, not scaled to a control.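 First-pass screen: polymyxin B was added at a level that permeabilizes the Salmonella outer membrane while sparing the inner membrane. DMSO wells, with and without polymyxin B, defined maximum growth. Because plates differed from one another, each plate's data were ranked separately and the compounds with the lowest OD600 were carried forward as hits.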

Tested on: Salmonella enterica serovar Typhimurium SL1344
Assay: bacterial growth OD600 after 18 h with compound and polymyxin B; higher = more bacterial growth (less inhibition)
Conditions: 50 µM, Mueller-Hinton broth

Row | SMILES | bacterial growth OD600 (polymyxin B 0.75 µg/mL) | bacterial growth OD600 (polymyxin B 1 µg/mL)
1 | COc1ccc(OC)c(-c2cc(Cl)c3c(c2)CC(CNC(=O)CCc2cccnc2)O3)c1 (stereo not given) | 0.004 | –
2 | CC1(CCC(=O)N2CCC3(CCCN(Cc4cccc(F)c4F)C3)C2)CC1 (stereo not given) | – | 0.028
3 | CCS(=O)(=O)c1ncc(CN(C)C(C)c2cccc(OC)c2)n1Cc1ccccc1 (stereo not given) | – | 0.395
4 | CC(C)CNc1ccc(C(=O)N2CCCCC2CCn2cccn2)cn1 (stereo not given) | – | 0.978
5 | COc1cc(CN2CC[C@@H](N3CCCCCC3)[C@H](O)C2)cc(Cl)c1OC | 0.735 | –
6 | O=C(CCc1cnccn1)N1CCC(C2CCN(c3ncccn3)CC2)C1 (stereo not given) | 0.841 | –
7 | O=C(Cc1cc(F)ccc1F)N1CCC(C2(c3cccnc3)NC(=O)N(CC3CCCO3)C2=O)CC1 (stereo not given) | 0.878 | –
8 | Cc1c[nH]c(C(=O)N2CCC3(CCCN(Cc4cccc(F)c4F)C3=O)C2)n1 (stereo not given) | – | 0.879
9 | CN(C)c1ncccc1CNC(=O)CCc1ccco1 | – | 0.924
10 | Nc1ncc(CN2CCCC(CO)(CCc3ccccc3)C2)cn1 (stereo not given) | 0.798 | –
11 | COCC1CCCN(C2CCN(c3ccc(NC(=O)CCCCc4ccccc4)cc3)CC2)C1 (stereo not given) | 0.761 | –
12 | CCOC(=O)CC1COCCN1C(=O)Cn1nnnc1CN1CCCC1 (stereo not given) | 0.861 | –
13 | COc1cccc(OCc2nc(C(=O)N3CCCC(C)C3)co2)c1 (stereo not given) | – | 1.05
14 | CCn1nc(C)c(CNC(=O)c2cc(NC(=O)C3CCCCC3)cc3ncn(CCOC)c23)c1C | 0.801 | –
15 | Cc1cc(CN(C)C(=O)c2csc3nc(-c4cccc(C(F)(F)F)c4)cn23)on1 | – | 1.11
16 | Cc1ccc(CC2(CCC(=O)N3CCCCC3c3ccccn3)CCC(=O)N2)cc1 (stereo not given) | 0.944 | –
17 | Cc1cnc(C)c(-c2ccc3c(c2)CC(CNC(=O)CSc2ccccn2)O3)n1 (stereo not given) | 0.905 | –
18 | O=C(c1cnn(-c2nccc(-c3cc4ccccc4o3)n2)c1C1CC1)N1CCN(CCO)CC1 | 0.959 | –
19 | CCn1nc(C)c(CNc2nc3nonc3nc2N(C)C)c1C | 0.798 | –
20 | Cc1noc(C)c1C(=O)N1CCC(C2CCN(CCc3ccccc3)CC2)C1 (stereo not given) | – | 0.981

Part of the list above, tab-delimited.
Row	SMILES	bacterial growth OD600 (polymyxin B 0.75 µg/mL)	bacterial growth OD600 (polymyxin B 1 µg/mL)
9	CN(C)c1ncccc1CNC(=O)CCc1ccco1	–	0.924
10	Nc1ncc(CN2CCCC(CO)(CCc3ccccc3)C2)cn1 (stereo not given)	0.798	–
